# Measured values as given in PubChem BioAssay AID1671190 (National Center for Advancing Translational Sciences (NCATS), 2021).
# Amino acid sequences for entries named in this document (tags omitted).
# UniProt P18054, whole entry, looked up: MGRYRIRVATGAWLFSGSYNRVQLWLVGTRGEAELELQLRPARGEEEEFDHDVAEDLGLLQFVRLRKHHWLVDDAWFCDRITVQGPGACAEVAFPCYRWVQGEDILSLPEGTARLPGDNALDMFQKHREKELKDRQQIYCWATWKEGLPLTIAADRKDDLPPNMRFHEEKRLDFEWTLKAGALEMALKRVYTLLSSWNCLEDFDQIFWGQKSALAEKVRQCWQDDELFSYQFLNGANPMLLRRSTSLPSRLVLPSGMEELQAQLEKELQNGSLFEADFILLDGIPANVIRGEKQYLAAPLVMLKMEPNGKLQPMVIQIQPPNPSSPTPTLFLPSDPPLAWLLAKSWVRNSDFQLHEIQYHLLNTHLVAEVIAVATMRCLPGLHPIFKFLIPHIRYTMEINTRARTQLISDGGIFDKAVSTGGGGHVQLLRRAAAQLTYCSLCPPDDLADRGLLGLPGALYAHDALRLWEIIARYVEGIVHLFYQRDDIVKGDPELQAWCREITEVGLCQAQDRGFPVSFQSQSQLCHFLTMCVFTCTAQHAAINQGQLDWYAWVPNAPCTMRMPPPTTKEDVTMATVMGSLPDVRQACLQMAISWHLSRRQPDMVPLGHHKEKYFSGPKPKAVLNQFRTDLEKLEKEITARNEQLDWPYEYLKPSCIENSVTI
# Where “and” joins values, the source holds several entries; their conditions need not be identical. Equal entries are not always repeated. Out of some 580,000 compounds screened, about 6,100 (1.1%) were called active. The inconclusive results got no clear call from the source; some entries with a clear call stand among them for comparison. Calls follow the shape of the dose curve; as a rule, active = well fitted inhibition curve with a large enough effect; inconclusive = small, poorly fitted or top-dose-only effect, or another doubt; inactive = no such curve, though single readings can be large or run the other way. Where the call is inconclusive, the potency comes from a doubtful curve fit.
# Target: Polyunsaturated fatty acid lipoxygenase ALOX12 (Homo sapiens) (UniProt P18054)
# Assay: Primary qHTS assay for inhibitors of human arachidonate 12S-lipoxygenase (ALOX12): Round 2
# Details: purified 12hLO, xylenol orange hydroperoxide absorbance; activity change, negative = inhibition: at 108 µM (top of the series)
# Method in brief: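 Purified human 12hLO (150 nM final) in 25 mM Hepes, 0.01% Triton X-100, pH 7.0 was preincubated 15 min at room temperature with compound. Then 40 uM arachidonic acid was added, 30 min. Hydroperoxide was read by Fe-XO absorbance ratio 573/405 nm.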
# % is scaled to controls: 0 for no effect and ±100 for the full control effect; potency is read from the fitted curve at half-maximal effect.
SMILES,Potency,"activity change, negative = inhibition"
COc1cc2c(cc1OCc1ccncc1)NC(=O)C21CCN(CC2CC2)CC1,inactive,
O=c1c(-c2cccc(C(F)(F)F)c2)ccc2n1C[C@H]1C[C@@H]2CN(S(=O)(=O)c2cccs2)C1,"inconclusive: 56.2 µM [inhibitor, partial curve, poor fit]",
COCOC1CCC2C3CCC4=CC(=O)CCC4=C3C=CC12C (configuration not stated),active: 25.1 µM,
CC(=O)n1cc(C=C2C(=O)NC(=O)NC2=O)c2ccccc21,"inconclusive: 44.7 µM [inhibitor, partial curve, poor fit]",
C=CCN(C)C(=O)[C@H]1CN2CCC1C[C@@H]2Cn1cc(-c2ccccc2)nn1 (some centres not stated),inactive,
O=c1cc(-c2ccccc2)[se]c2ccccc12,"inconclusive: 50.1 µM [inhibitor, partial curve, poor fit]",
CC(C)(C)c1cn(C[C@H]2CC3CCN2C[C@@H]3C(=O)Nc2nccs2)nn1 (some centres not stated),"inconclusive: 10 µM [inhibitor, partial curve]",
CS(=O)(=O)N1CCC2(C1)N=C(c1cccnc1)C(=O)N2 (configuration not stated),inactive,
Nc1cnn(-c2ccccc2)c(=O)c1Cl,,inconclusive: -38.8% [inhibitor]
CCn1cc(CN2CCN(C(=O)Cc3ccsc3)CC2)ccc1=O,inactive,
COc1ccc(CNCCc2c[nH]c3ccccc23)cc1OC,"inconclusive: 2.82 µM [inhibitor, full curve, poor fit]",
O=C(C(=O)N1CCOCC1)c1cn(Cc2c(F)cccc2Cl)c2ccccc12,inactive,
COc1ccc(Br)cc1CNCCc1cccc(Cl)c1,"inconclusive: 17.8 µM [inhibitor, full curve]",
CN1C(=O)C(c2ccc([N+](=O)[O-])cc2[N+](=O)[O-])C(=O)N(C)C1=O,"inconclusive: 44.7 µM [inhibitor, partial curve, poor fit]",
O=C(c1ccc(F)cc1)N1C[C@@H]2C[C@H](C1)c1c(-c3cc4ccccc4s3)ccc(=O)n1C2,"inconclusive: 17.8 µM [inhibitor, full curve]",
C=C[C@H]1CN2CC[C@H]1C[C@@H]2CNC(=O)COc1ccccc1,inactive,
O=P1(NCCCn2cc[n+](Cc3nc4ccccc4[nH]3)c2)C=C(c2ccccc2)OC(c2ccccc2)=C1,"inconclusive: 35.5 µM [inhibitor, single point]",
O=[N+]([O-])c1ccc(O)c([N+](=O)[O-])c1,inactive,
COc1ccc2c(c1)C1(CCN(C(=O)C(C)(C)C)C1)C(=O)N2C (configuration not stated),"inconclusive: 12.6 µM [inhibitor, partial curve, poor fit]",
CSCCC(c1nnnn1-c1ccc2c(c1)OCCO2)N1CCC2(CC1)C(=O)NCN2c1ccccc1 (configuration not stated),"inconclusive: 50.1 µM [inhibitor, partial curve, poor fit]",
C[C@]12CC[C@@H](O)CC1=CCC1C2CC[C@@]2(C)C1CC[C@@H]2O (some centres not stated),"inconclusive: 126 µM [inhibitor, single point]",
CCC(CC)c1cc([C@H]2CN3CC[C@H]2C[C@@H]3CNC(=O)NCc2ccccc2)nc(-c2ccncc2)n1,"inconclusive: 35.5 µM [inhibitor, full curve, poor fit]",
CCOc1cccc(CNCCc2c(C)[nH]c3ccc(OC(F)(F)F)cc23)c1O,active: 39.8 µM,

# Taken from above.
# CCOc1cccc(CNCCc2c(C)[nH]c3ccc(OC(F)(F)F)cc23)c1O | Potency: active: 39.8 µM
# C[C@]12CC[C@@H](O)CC1=CCC1C2CC[C@@]2(C)C1CC[C@@H]2O (some centres not stated) | Potency: inconclusive: 126 µM [inhibitor, single point]

# Quoted at random: 2 compounds from above.
SMILES,Potency,"activity change, negative = inhibition"
CS(=O)(=O)N1CCC2(C1)N=C(c1cccnc1)C(=O)N2 (configuration not stated),inactive,
O=[N+]([O-])c1ccc(O)c([N+](=O)[O-])c1,inactive,

# The listing continues:

SMILES,Potency,"activity change, negative = inhibition"
CC(Cc1ccccc1)N(C)CC1C(=O)C2CCC1C2 (configuration not stated),"inconclusive: 39.8 µM [inhibitor, partial curve, poor fit]",
Oc1ccc(C2NCc3ccccc3-n3cccc32)cc1Cl (configuration not stated),"inconclusive: 50.1 µM [inhibitor, partial curve, poor fit] and inconclusive: 25.1 µM [inhibitor, single point]",
CN1CCN(c2ccc3ccccc3n2)CC1,"inconclusive: 31.6 µM [inhibitor, single point]",
O=S(=O)(NC[C@H]1C[C@@H]2CCN1C[C@@H]2CN1CCOCC1)c1cccs1,inactive,
N#Cc1ccc(C(=O)N2Cc3cnnn3-c3ccccc3C2C#N)cc1 (configuration not stated),"inconclusive: 56.2 µM [inhibitor, partial curve, poor fit]",
Cc1ccc2c(c1)C1CN(C)CCC1N2S(=O)(=O)c1ccccc1 (configuration not stated),"inconclusive: 44.7 µM [inhibitor, partial curve, poor fit]",
Nc1c(C(=O)NCc2ccco2)c2nc3ccccc3nc2n1Cc1ccccc1,"inconclusive: 56.2 µM [inhibitor, partial curve, poor fit]",
CN1[C@H]2CC(O)C[C@H]1[C@H]1O[C@H]12 (some centres not stated),"inconclusive: 15.3 µM [inhibitor, partial curve, poor fit]",
Cc1nc(-c2ccc(F)cc2)cc([C@H]2CN3CC[C@H]2C[C@@H]3CNC(=O)NCc2ccccc2)n1,"inconclusive: 20 µM [inhibitor, partial curve, poor fit]",
O=C(N/N=C1/CN2CCC1CC2)c1cccc(O)c1,"inconclusive: 2.51 µM [inhibitor, full curve, poor fit]",
COCc1c(CN)cnc(C)c1N,"inconclusive: 14.1 µM [inhibitor, full curve]",
CSc1cccc(NC(=O)NC[C@H]2C[C@@H]3CCN2C[C@@H]3CN2CCN(c3ccccc3)CC2)c1,inactive,
O=C1NC(=O)C(=Cc2cc([N+](=O)[O-])ccc2N2CCCCC2)C(=O)N1,inactive,
Cc1oc2cc(OCC(=O)N3CCN(C)CC3)ccc2c(=O)c1Oc1ccccc1,inactive,
Cc1ccccc1N1CCN(C2CCCN(C(=O)Cc3c(C)noc3C)C2)CC1 (configuration not stated),"inconclusive: 63.1 µM [inhibitor, partial curve, poor fit]",
CCC(CC)c1cc([C@H]2CN3CC[C@H]2C[C@@H]3COC(=O)Nc2ccc(C(C)(C)C)cc2)nc(-c2ccncc2)n1,active: 50.1 µM,
CCN(CC)CC(O)c1ccc(C2CCCC2)cc1 (configuration not stated),inactive,
CC(N)C(=O)c1ccccc1 (configuration not stated),inactive,
COc1ccc(C(=O)N2[C@H]3CC[C@@H]2c2cnc(C)nc2C3)cc1OC,inactive,
C1NC2CC3CC1CC(C3)C2,"inconclusive: 39.8 µM [inhibitor, partial curve, poor fit]",
CN(C)CCN=Cc1c(O)n(Cc2ccco2)c(=O)[nH]c1=O,inactive,
CCOC(=O)C(O)(c1ccc(NC(=S)NC(=O)c2ccc(Cl)cc2Cl)c(C)c1)C(F)(F)F (configuration not stated),"inconclusive: 35.5 µM [inhibitor, partial curve]",
O=C(O)C(Br)CBr (configuration not stated),"inconclusive: 50.1 µM [inhibitor, partial curve, poor fit]",

SMILES,Potency,"activity change, negative = inhibition"
C[C@]12CCC3=C4CCC(=O)C=C4CC[C@H]3C1CC[C@@H]2O (some centres not stated),"inconclusive: 100 µM [inhibitor, single point]",
COc1ccc2[nH]c(C)c(CCNCc3ccc(F)cc3F)c2c1,active: 1 µM,
CCCCCn1c(=O)c(C(=O)Nc2ccccc2N)c(O)c2ccccc21,inactive,
COc1ccc(N2C(=O)/C(=C/c3ccc(N(C)C)o3)C(=O)NC2=S)cc1,"inconclusive: 50.1 µM [inhibitor, partial curve, poor fit]",
NC(=NCc1ccc(Cl)cc1)SCCCc1cnc[nH]1,"inconclusive: 35.5 µM [inhibitor, single point]",
Cn1cc(C(=O)OCC(=O)NC(C)(C)C)c2ccccc21,,inconclusive: -32% [inhibitor]
CCOP(=O)(OCC)c1cccc(OP(=O)(c2cccc([N+](=O)[O-])c2)c2cccc([N+](=O)[O-])c2)c1,"inconclusive: 56.2 µM [inhibitor, partial curve, poor fit]",
CS(=O)(=O)NC[C@H]1C[C@@H]2CCN1C[C@@H]2CN1C[C@@H]2C[C@H](C1)c1cccc(=O)n1C2,inactive,
O=C1C2CCN(CC2)C12CC2c1ccc(C(F)(F)F)cc1 (configuration not stated),"inconclusive: 112 µM [inhibitor, single point]",
O=C1NC(=S)NC(=O)C1=Cc1ccc(Br)s1,active: 15.8 µM,
CC(=O)c1c(C)[nH]c(C(=O)C(C)NC(C)c2ccccc2F)c1C (configuration not stated),"inconclusive: 35.5 µM [inhibitor, partial curve, poor fit]",
C=CCN1CCN(C(=O)Cc2ccc(F)cc2)CC1,inactive,
O=C1CN=C(c2ccccc2)c2cc(Br)ccc2N1Cc1cc(=O)n2ccccc2n1,inactive,
CC(C)(C)NC(=S)N1Cc2ccccc2-n2nncc2C1,"inconclusive: 35.5 µM [inhibitor, single point]",
CC(CO)(CO)N=Cc1c(O)n(-c2cccc3ccccc23)c(=O)[nH]c1=O,inactive,
COc1ccc2ccc(O)c(CN3CC=C(c4ccccc4)CC3)c2c1,"inconclusive: 31.6 µM [inhibitor, partial curve]",
COc1ccc(CCNC2CCCCC2)cc1,"inconclusive: 89.1 µM [inhibitor, partial curve, poor fit]",
COc1cccc(N2C(=O)NC(=O)/C(=C\c3cn(C)c4ccccc34)C2=O)c1,"inconclusive: 79.4 µM [inhibitor, partial curve, poor fit]",
COc1ccc(NC(=S)NC(NC(=O)CF)C(Cl)(Cl)Cl)cc1[N+](=O)[O-] (configuration not stated),"inconclusive: 35.5 µM [inhibitor, partial curve, poor fit]",
O=c1[nH]c(O)c(N=Nc2cccc(S(=O)(=O)N3CCOCC3)c2)c(=O)[nH]1,inactive,
C#CCN(C)[C@H](C)Cc1ccccc1,"inconclusive: 35.5 µM [inhibitor, single point] and inconclusive: 112 µM [inhibitor, single point]",
